This passage reports binding results from patent US20170158761A1 (EWHA UNIVERSITY INDUSTRY COLLABORATION FOUNDATION, published 2017).

Test [1] has as its target T1, f-TCTP (full-length TCTP, monomer TCTP) (Pan troglodytes (Chimpanzee)) (UniProt A5A6K2).
T1 sequence: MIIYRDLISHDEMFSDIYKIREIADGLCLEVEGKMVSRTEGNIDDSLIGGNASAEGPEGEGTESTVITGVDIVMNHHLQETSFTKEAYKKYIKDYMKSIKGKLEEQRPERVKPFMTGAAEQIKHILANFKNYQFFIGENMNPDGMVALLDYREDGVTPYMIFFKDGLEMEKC
Kind of test: ELISA: biotinylated dTBP2 (0.01 to 10 µM) on streptavidin plate, TCTP protein at 0.2 µg/ml, anti-HRF rabbit antibody detection. (An ELISA detects its analyte on a solid surface through an enzyme-linked reagent.)

Test [2] deals with T1, f-TCTP (full-length TCTP, monomer TCTP) (Pan troglodytes (Chimpanzee)). Kind of test: ELISA on immobilised biotinylated dTBP2.

Results are given in words; binding and its absence hold for the method and conditions named. Some entries that bind do so weakly or less than the wild type.

In the case of WYVYPSM (biotin conjugated to the COOH-terminus) [biotinylated dTBP2 (dTCTP binding peptide 2)], the binding entry in test [1] and in test [2] was “binds” each time.
